# Assay results reported in US20240026012A1.
# Changes are numbered by the printed parent chain. These are yes or no findings as the source states them, for the method shown. Some binding calls cover weakened binding; strength is not graded here.
# T1: recombinant extracellular domain (ECD) FGFR4 (UniProt P22455)
# T1 sequence (looked up): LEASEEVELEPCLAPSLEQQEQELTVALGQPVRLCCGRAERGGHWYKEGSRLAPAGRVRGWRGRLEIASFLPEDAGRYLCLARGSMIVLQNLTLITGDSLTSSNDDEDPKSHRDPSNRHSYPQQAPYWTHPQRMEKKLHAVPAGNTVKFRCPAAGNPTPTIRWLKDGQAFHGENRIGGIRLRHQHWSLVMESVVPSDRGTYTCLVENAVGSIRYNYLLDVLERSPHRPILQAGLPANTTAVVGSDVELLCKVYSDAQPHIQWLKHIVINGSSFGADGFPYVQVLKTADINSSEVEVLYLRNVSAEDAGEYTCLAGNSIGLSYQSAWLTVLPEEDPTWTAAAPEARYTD
# B1: H4-VLVH FGFR4 binding polypeptide (scFv)
# scFv: DIQMTQSPSSLSASVGDRVTITCRASQSISSYLNWYQQKPGKAPKLLIYAASSLQSGVPSRFSGSGSGTDFTLTISSLQPEDVGVYYCLQITHWPHTFGQGTKLEIKRGGGGSGGGGSGGGGSQVQLVESGGGLVKPGGSLRLSCAASGFTFSDYYMSWIRQAPGKGLEWVSYISSSGSTIYYADSVKGRFTISRDNAKNSLYLQMNSLRAEDTAMYYCARDAPDLLAVPTVIFSGYHYGADVWGQGATVTVSS
# B2: C1-VLVH FGFR4 binding polypeptide (scFv)
# scFv: DIQMTQSPSSLSASVGDRVTITCRASQSISSYLNWYQQKPGKAPKLLIYAASSLQSGVPSRFSGSGSGTDFTLTISSLQPEDAATYYCQHYGTFGQGTKVEIKRGGGGSGGGGSGGGGSQVQLVESGGGLVKPGGSLRLSCAASGFTFSDYYMSWIRQAPGKGLEWVSYISSSGSTIYYADSVKGRFTISRDNAKNSLYLQMNSLRAEDTAVYYCARHAPHKHYDFWSGYYPDYWGQGTLVTVSS
# B3: D7-VLVH FGFR4 binding polypeptide (scFv)
# scFv: DIQMTQSPSSLSASVGDRVTITCRASQSISSYLNWYQQKPGKAPKLLIYAASSLQSGVPSRFSGSGSGTDFTLTISSLQPEDIAAYYCQHYGTFGQGTKLEIKRGGGGSGGGGSGGGGSQVQLVESGGGLVKPGGSLRLSCAASGFTFSDYYMSWIRQAPGKGLEWVSYISSSGSTIYYADSVKGRFTISRDNAKNSLYLQMNSLRAEDTAVYYCARDGYPLGGGYDFWSGYYPDYWGQGTLVTVSS
# B4: C9-VLVH FGFR4 binding polypeptide (scFv)
# scFv: DIQMTQSPSSLSASVGDRVTITCRASQSISSYLNWYQQKPGKAPKLLIYAASSLQSGVPSRFSGSGSGTDFTLTISSLQPEDFAVYYCQQRSNWPPTFGQGTKLEIKRGGGGSGGGGSGGGGSQVQLVESGGGLVKPGGSLRLSCAASGFTFSDYYMSWIRQAPGKGLEWVSYISSSGSTIYYADSVKGRFTISRDNAKNSLYLQMNSLRAEDTAKYYCATAVFSLGPEGYYYYMDVWGKGTTVTVSS
# B5: G6-VLVH FGFR4 binding polypeptide (scFv)
# scFv: DIQMTQSPSSLSASVGDRVTITCRASQSISSYLNWYQQKPGKAPKLLIYAASSLQSGVPSRFSGSGSGTDFTLTISSLQPEDAATYYCQHYGTFGQGTKLEIKRGGGGSGGGGSGGGGSQVQLVESGGGLVKPGGSLRLSCAASGFTFSDYYMSWIRQAPGKGLEWVSYISSSGSTIYYADSVKGRFTISRDNAKNSLYLQMNSLRAEDTAVYYCARHKTSLNDYDFWSGYLLDYWGQGTLVTVSS
# B6: A6-VLVH FGFR4 binding polypeptide (scFv)
# scFv: B5 scFv with H90R, L100V, E101D
# B7: B7-VLVH FGFR4 binding polypeptide (scFv)
# scFv: B5 scFv with A83F, T85V, L100V, V212M
# B8: E61 FGFR4 binding polypeptide (VH domain only) (protein)
# VH: EVQLVESGGGLVQPGGSLRLSCTFSGFTFSSYAMSWVRQAPGKGLEWMGIIYPGDSNTIYSPSFQGQVTISRDNSKNTLYLQMNSLRAEDTATYYCARSGAYDGRIWFDPWGQGTLVTVSS
# B9: F11 FGFR4 binding polypeptide (VH domain only) (protein)
# VH: EVQLVESGGGLVQPGGSLRLSCAASGFTFSNYGMSWVRQAPGQGLEWVSYISNGGGTMYYADSVKGRFTISRDNSKNTLYLQMNSLRAEDTATYYCTRAPYCSGGDCYPMSTHELDSWGQGTLVTVSS
# B10: D92 FGFR4 binding polypeptide (VH domain only) (protein)
# VH: EVQLVESGGGLVQPGGSLRLSCVASGFTFSSYGMHWVRQAPGKGLEWIGYSYYSGSTYYNPSLKSLVTISRDNSKNTLYLQMNSLRAEDTATYYCARDGSSWYSFPYYYGMDVWGQGTTVTVSS
# B11: D8 FGFR4 binding polypeptide (VH domain only) (protein)
# VH: EVQLVESGGGLVQPGGSLRLSCAASGFTFSNYGMSWVRQAPGKALEWIGEINHSGSTNYNPSLKSRVTISRDNSKNTLYLQMNSLRAEDTAIYYCRGGWVGYWGQGTLVTVSS
# Target: T1, recombinant extracellular domain (ECD) FGFR4
# Assay: F(ab)-based phage display library screen
row,binding,Binder
1,binds,B1
2,binds,B2
3,binds,B3
4,binds,B4
5,binds,B5
6,binds,B6
7,binds,B7

# Target: T1, recombinant extracellular domain (ECD) FGFR4
# Assay: dAb phage display panning on recombinant ECD FGFR4; semELISA
row,binding,Binder
1,binds,B8
2,binds,B9
3,binds,B10
4,binds,B11
